# Test results as given in PubChem BioAssay (EPA / NIEHS).
# The shares of active, inactive and inconclusive entries below differ from those in the screen. Potencies beside an inconclusive call are fits to weak or partial responses and may not hold up. Calls of active or inactive are those of the source. The calls were made as follows: active = hit-call score of the fitted dose curve at least 0.9, where 1 is the maximum; inconclusive = response in the unintended direction; inactive = score below 0.9.
# Test: ACEA_ER_AUC_viability: ACEA Biosciences xCELLigence Real-Time Cell Analysis on Estrogen Receptor Agonism for Viability (AID 2283782);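 also: hit means loss of impedance signal meaning reduced cell growth or viability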
# Procedure, shortened: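 Continuous-exposure impedance cell analysis uses T-47D cells in charcoal-stripped serum, eight 1:4 dilutions topping at 100 uM final, biological duplicate. Area under the growth curve at 80 h is fitted against DMSO baseline.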
Compound,outcome,AC50
Cc1ccc(S(=O)(=O)NCl)cc1,inactive,–
CCOC(=O)CC,inactive,–
CC(C)C(=O)OCCOc1ccccc1,inactive,–
NC(N)=S,–,inconclusive: 0.912 µM
O=P(O)(O)CCC(F)(F)C(F)(F)C(F)(F)C(F)(F)C(F)(F)C(F)(F)C(F)(F)C(F)(F)F,–,inconclusive: 0.0364 µM
CCCC/C=C/CCCCO,–,active: 50 µM
CCOC(OCC)C(=O)c1ccccc1,inactive,–
ClC1=C(Cl)C(Cl)(Cl)C(Cl)=C1Cl,–,active: 71.2 µM
C=C(C)[C@H]1CC=C(C)CC1,–,inconclusive: 10.1 µM
CCOB(OCC)OCC,inactive,–
C[Si]1(C)N[Si](C)(C)N[Si](C)(C)N1,inactive,–
CC1OC(=O)C(C)OC1=O (configuration not stated),–,inconclusive: 0.0967 µM
CCCCCCCCCCCCCCOS(=O)(=O)O,–,active: 74.5 µM
O=C(N[C@H](CO)[C@H](O)c1ccc([N+](=O)[O-])cc1)C(Cl)Cl,–,active: 73.2 µM
Nc1ccc(N=Nc2ccccc2)c(N)n1,inactive,–
C#C[C@]1(O)CC[C@H]2[C@@H]3CCc4cc(OC)ccc4[C@H]3CC[C@@]21C,–,inconclusive: 0.000766 µM
CCO[Si](CCCN)(OCC)OCC,inactive,–
Cc1nccn1-c1ccc(Sc2cccc(C3(C(N)=O)CCOCC3)c2)cc1,–,inconclusive: 0.809 µM
Nc1ccc(C(=O)O)cc1,–,inconclusive: 50 µM
Oc1cccc(O)c1,–,inconclusive: 50 µM
O=C(O)C=C(C(F)(F)F)C(F)(F)F,–,inconclusive: 24.8 µM
COC(=O)CCC(=O)OC,inactive,–

# At a glance, part of the list above:
Compound,outcome,AC50
Cc1nccn1-c1ccc(Sc2cccc(C3(C(N)=O)CCOCC3)c2)cc1,–,inconclusive: 0.809 µM
Nc1ccc(C(=O)O)cc1,–,inconclusive: 50 µM
Oc1cccc(O)c1,–,inconclusive: 50 µM
O=C(O)C=C(C(F)(F)F)C(F)(F)F,–,inconclusive: 24.8 µM
